# Values joined by “and” are separate entries in the source; they are usually repeats but may differ in a detail not shown here. Equal values may be shown once. The campaign covered roughly 390,000 compounds. About 760 (0.19%) were called active. This list was built around the results that the source calls inconclusive (neither active nor inactive); the mix of calls is not that of the screen. Calls follow the shape of the dose curve; as a rule, active = well fitted inhibition curve with a large enough effect; inconclusive = small, poorly fitted or top-dose-only effect; inactive = flat fitted curve, though single readings scatter. Potencies beside an inconclusive call are fits to weak or partial responses and may not hold up.
# Test: qHTS for Inhibitors of Vif-A3F Interactions: qHTS; also: nearly all actives have a fitted effect of over 65% in size
# Conditions: HeLa A3F-eYFP + Vif (tagged APOBEC3F with the HIV-1 protein that degrades it), YFP fluorescence increase; series mostly up to 46.1 µM
# How it was run: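 HeLa cells stably expressing A3F-eYFP plus Vif, plated and incubated overnight at 37 deg C, then exposed to compounds overnight at 37 deg C. Blocked degradation read as raised yellow fluorescence (Ex 488/Em 500-530).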
# Potency is read from the fitted curve at half-maximal effect.
row,Compound,Potency
1,Cc1nn2c(=O)cc(COC(=O)c3cccc(NC(=O)COc4ccccc4C)c3)nc2s1,"inconclusive: 35.5 µM [inhibitor, single point]"
2,CCOc1ccccc1CNC(=O)C1CCCN(c2nnc(C)c3c(C)n(-c4ccccc4)nc23)C1 (stereo unspecified),"inconclusive: 25.1 µM [inhibitor, partial curve, poor fit] and inconclusive: 20 µM [inhibitor, partial curve, poor fit]"
3,O=C(NCCC1=CCCCC1)c1ccc(Cl)c(S(=O)(=O)N2CCCCC2)c1,"inconclusive: 35.5 µM [inhibitor, partial curve, poor fit]"
4,CN=C1SC(CC(=O)Nc2ccc(F)cc2F)C(=O)N1/N=C/c1ccc(OC(F)F)c(OC)c1 (stereo unspecified),"inconclusive: 7.08 µM [inhibitor, full curve, poor fit]"
5,COc1ccc(C2=NN(C(=O)CSc3nc4ccccc4s3)C(c3ccc(F)cc3)C2)cc1 (stereo unspecified),"inconclusive: 14.1 µM [inhibitor, partial curve, poor fit]"
6,O=C(CN1C(=O)NC2(CCCC2)C1=O)OCC(=O)c1cccc(Cl)c1,"inconclusive: 5.62 µM [inhibitor, single point]"
7,O=C(NC(=S)Nc1cccc(NC(=S)NC(=O)c2ccccc2)c1)c1ccccc1,inactive
8,S=C(NCCc1ccccc1)Nc1ccccn1,inactive
9,CCC1CCCCN1C(=S)NC(=O)c1cccc([N+](=O)[O-])c1 (stereo unspecified),"inconclusive: 6.31 µM [inhibitor, single point]"
10,O=C(/C=C\NCC(=O)c1ccccc1)c1ccc2ccccc2c1,inactive
11,COc1cc(/C=C(\C#N)c2nc3ccccc3[nH]2)ccc1OCc1ccccc1F,active: 22.4 µM
12,Cn1cc(C(=O)N/N=C/C(Br)=C/c2ccccc2)ccc1=O,"inconclusive: 2.82 µM [inhibitor, partial curve, poor fit]"
13,CCn1c(=O)c(=O)n(CC)c2cc(S(=O)(=O)Nc3cccc(OC)c3)ccc21,inactive
14,O=C(NC(O)C(=O)c1ccccc1)c1ccccn1 (stereo unspecified),"inconclusive: 5.62 µM [inhibitor, single point]"
15,COc1ccc(OC)c(/C(O)=C/C(=O)C(=O)Nc2cc(C)cc(C)c2)c1,inactive
16,COc1ccc(N=Cc2sc(O)c3ccccc23)cc1,inactive
17,COc1ccc(Cn2c(C)c(C)c(C#N)c2NC(=O)Nc2ccccc2)cc1,"inconclusive: 15.8 µM [inhibitor, single point]"
18,N#CC1=C(N)Oc2cc(N)ccc2C1C1CC=CCC1 (stereo unspecified),inactive
19,C=C(C(=O)c1ccccc1)C(C)C(=C)C(=O)c1ccccc1,"inconclusive: 5.62 µM [inhibitor, single point]"
20,COc1cc(OC)nc(Oc2ccccc2C=O)n1,"inconclusive: 35.5 µM [inhibitor, single point]"
21,COc1ccc(NS(=O)(=O)c2cc(NC(=O)[C@@H](NC(N)=O)C(C)C)ccc2C)cc1,"inconclusive: 22.4 µM [inhibitor, single point]"
22,COc1cccc(NC(=O)c2oc3ccccc3c2NC(=O)c2ccc(F)c(F)c2)c1,inactive

# Gathered by group: the compounds so far containing two or more sulfur atoms
row,Compound,Potency
5,COc1ccc(C2=NN(C(=O)CSc3nc4ccccc4s3)C(c3ccc(F)cc3)C2)cc1 (stereo unspecified),"inconclusive: 14.1 µM [inhibitor, partial curve, poor fit]"
7,O=C(NC(=S)Nc1cccc(NC(=S)NC(=O)c2ccccc2)c1)c1ccccc1,inactive

# The list continues.

row,Compound,Potency
1,CCCCn1c(N)c(N(CC(C)C)C(=O)c2cc(-c3ccc(OC)cc3)nc3ccccc23)c(=O)[nH]c1=O,"inconclusive: 15.8 µM [inhibitor, single point]"
2,O=C(Nc1cccc(Cl)c1)C1CCCN(c2nn3cc(-c4ccc(F)cc4)nc3s2)C1 (stereo unspecified),inactive
3,C=CC(=O)Nc1cccc(N(C)c2ccnc(Nc3ccc(N4CCN(C)CC4)cc3)n2)c1,inactive
4,O=C1N(Cc2cccc(Cl)c2)C[C@@H]2C[C@@H](c3ccco3)N3CCC[C@@]123,"inconclusive: 22.4 µM [inhibitor, single point]"
5,O=C(COc1ccccc1/C=C1\SC(=S)NC1=O)Nc1ccc(F)cc1,"inconclusive: 35.5 µM [inhibitor, single point]"
6,C=CCc1cccc(/C=N/NC(=O)C(C)Nc2cccc(C)c2)c1O (stereo unspecified),"inconclusive: 11.2 µM [inhibitor, single point]"
7,OC1CCCN(Cc2ccc3ccc4cccc5ccc2c3c45)C1 (stereo unspecified),"inconclusive: 25.1 µM [inhibitor, single point]"
8,N=c1oc2cc(O)ccc2cc1C(=O)Nc1nc2ccccc2s1,"inconclusive: 11.2 µM [inhibitor, partial curve, poor fit]"
9,CCOC(=O)c1cnc(SSc2ncc(C(=O)OCC)c(N)n2)nc1N,"inconclusive: 35.5 µM [inhibitor, single point]"
10,O=C(Nc1ccc(NC(=O)c2cc3ccccc3o2)cc1)c1ccco1,"inconclusive: 6.31 µM [inhibitor, single point]"
11,CCOc1c(Cl)cc(/C=N/NC(N)=S)cc1OC,active: 11.2 µM
12,CC(C)c1ccc(C(C(=O)NC2CCCCC2)N(C(=O)c2csnn2)C2CC2)cc1 (stereo unspecified),"inconclusive: 0.562 µM [inhibitor, full curve, poor fit]"
13,COc1ccc(/C=C2\CN(Cc3ccccc3)C/C(=C\c3ccc(OC)cc3)C2=O)cc1,"inconclusive: 25.1 µM [inhibitor, single point]"
14,CCN(CC)c1ccc(/C=C2\CCC(/C=N/NC(=O)c3ccc(=O)n(C)c3)=C2N2CCOCC2)cc1,"inconclusive: 3.98 µM [inhibitor, partial curve, poor fit]"
15,Cc1ccc(Nc2nc(-c3ccc(C)cc3)c(CC(=O)O)s2)cc1,"inconclusive: 35.5 µM [inhibitor, single point]"
16,Cc1ccc(C)c(N2CCN(C(=O)c3cc4c(C)nc5ccccc5c4o3)CC2)c1,"inconclusive: 20 µM [inhibitor, single point]"
17,CC1=Nc2ccccc2N=C(N)C1c1ccccc1 (stereo unspecified),"inconclusive: 35.5 µM [inhibitor, partial curve, poor fit]"
18,CCCn1c(C2CCCN2c2nc(C)cs2)nc2cc(Cl)c(Cl)cc21 (stereo unspecified),"inconclusive: 25.1 µM [inhibitor, single point]"
19,Cc1ccc(C(=O)Cn2c(C(=O)OCCO)cc3ccccc32)cc1,"inconclusive: 6.31 µM [inhibitor, partial curve, poor fit]"
20,CC(=O)CCSc1ncnc2sc(-c3ccccc3)cc12,"inconclusive: 8.91 µM [inhibitor, partial curve]"
21,Cn1nnc(NC(=S)NC(=O)c2cc(Cl)ccc2Cl)n1,"inconclusive: 3.16 µM [inhibitor, partial curve, poor fit]"
22,COc1ccc(N2CCN(c3ccc(-c4nc(-c5ccccc5)no4)cc3[N+](=O)[O-])CC2)cc1,inactive

row,Compound,Potency
1,CCCCc1ccc(NC(=S)NCC2CCCO2)cc1 (stereo unspecified),"inconclusive: 35.5 µM [inhibitor, single point]"
2,O=C(COCc1cc(-c2cccs2)on1)NC1CCCCC1,inactive
3,CC(O)CNc1nc2ccccc2n1CC(=O)N1CCN(Cc2ccccc2)CC1 (stereo unspecified),"inconclusive: 35.5 µM [inhibitor, single point]"
4,CCc1cccc(NC(=O)CSc2nncn3c2cc2sccc23)c1,"inconclusive: 35.5 µM [inhibitor, single point]"
5,CN(C)c1ccc(/C=C/c2nc3ccccc3c(=O)n2CCO)cc1,active: 12.6 µM
6,CC(=O)Nc1nnc(-c2ccc(Cl)s2)o1,"inconclusive: 17.8 µM [inhibitor, single point]"
7,CCCOc1ccc(C(=O)NC(=S)N2CCN(c3cc4c(cc3F)c(=O)c(C(=O)O)cn4CC)CC2)cc1,inactive
8,CC(C)n1cnc2c(NCc3ccccc3)cc(Cc3ccc(F)cc3)cc21,"inconclusive: 35.5 µM [inhibitor, single point]"
9,COc1cc(/C=N\Nc2ccc([N+](=O)[O-])cc2)ccc1OCC(=O)Nc1ccc(C)c(C)c1,active: 10 µM
10,O=C(Nc1ccc(-c2ccccc2)cc1)c1ccco1,"inconclusive: 6.31 µM [inhibitor, single point]"
11,COC(=O)c1ccc(NC(=O)CS(=O)(=O)c2ccccc2)cc1,"inconclusive: 35.5 µM [inhibitor, partial curve, poor fit]"
12,COc1ccc(N/N=C(/C)c2cnnc(-c3ccccc3)n2)cc1,"inconclusive: 3.16 µM [inhibitor, partial curve, poor fit]"
13,CCOc1cc(CNC(=O)c2ccccc2NC(=O)c2nsc3ccccc23)ccc1OC,"inconclusive: 35.5 µM [inhibitor, single point]"
14,O=C1ON=C(c2ccccc2)/C1=C/c1ccc(O)c(O)c1,inactive
15,CCNC(=S)NNC(=O)CSc1nc2ccccc2n1C,"inconclusive: 4.47 µM [inhibitor, single point]"
16,O=c1oc2ccccc2nc1/C=C(\O)c1ccccc1,inactive
17,COc1ccc(-c2nn(-c3ccccc3)cc2C(=O)N/N=C/c2ccc([N+](=O)[O-])o2)cc1,"inconclusive: 3.98 µM [inhibitor, single point]"
18,COc1ccccc1CNC(=O)CSc1nc2nc(C)c(Cc3ccccc3Cl)c(C)n2n1,inactive
19,Cc1ccc(C)c(NC(=O)COC(=O)c2ccc3ccccc3n2)c1,"inconclusive: 25.1 µM [inhibitor, single point]"
20,N#CC1=C(SCC(=O)c2cc3ccccc3oc2=O)NC(=O)C(C#N)C12CCCC2 (stereo unspecified),"inconclusive: 35.5 µM [inhibitor, single point]"
21,O=C(CN1CCCCC1)N1CCCc2c1c(=O)oc1ccc(OCc3ccccc3)cc21,inactive
22,N#CCCn1cc(/C=C2\NC(=S)N(c3ccccc3)C2=O)c(-c2ccc(-c3ccccc3)cc2)n1,"inconclusive: 17.8 µM [inhibitor, single point]"

# Reference: PubChem BioAssay AID602313 (National Center for Advancing Translational Sciences (NCATS), 2012)
